Test in all cases: co-IP; endogenous proteins in mBMDM lysates (cells with or without stimulation), precleared, IP overnight at 4 °C with anti-CEBPB, anti-CD74, anti-P65 or control IgG, protein A agarose beads, five washes with lysis buffer, immunoblot
For orientation: In western blotting, separated proteins are transferred to a membrane and probed.

The chains behind the UniProt entries cited, without tags or fusion partners.
UniProt Q04207: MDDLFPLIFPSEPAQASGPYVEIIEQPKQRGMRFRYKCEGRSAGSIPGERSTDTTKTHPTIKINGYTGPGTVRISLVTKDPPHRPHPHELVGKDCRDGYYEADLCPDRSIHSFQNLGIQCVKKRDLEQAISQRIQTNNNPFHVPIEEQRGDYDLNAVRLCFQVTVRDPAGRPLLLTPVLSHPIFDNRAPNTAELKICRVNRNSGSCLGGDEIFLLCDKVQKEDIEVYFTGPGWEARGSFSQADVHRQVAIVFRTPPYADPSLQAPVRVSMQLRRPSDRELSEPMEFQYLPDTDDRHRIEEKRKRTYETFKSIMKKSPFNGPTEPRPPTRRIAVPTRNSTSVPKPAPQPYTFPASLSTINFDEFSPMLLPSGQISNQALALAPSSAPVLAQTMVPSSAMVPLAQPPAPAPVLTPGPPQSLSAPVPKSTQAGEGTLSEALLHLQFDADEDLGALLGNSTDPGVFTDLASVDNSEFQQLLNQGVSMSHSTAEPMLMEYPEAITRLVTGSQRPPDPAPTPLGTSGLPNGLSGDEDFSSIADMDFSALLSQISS
UniProt P28033: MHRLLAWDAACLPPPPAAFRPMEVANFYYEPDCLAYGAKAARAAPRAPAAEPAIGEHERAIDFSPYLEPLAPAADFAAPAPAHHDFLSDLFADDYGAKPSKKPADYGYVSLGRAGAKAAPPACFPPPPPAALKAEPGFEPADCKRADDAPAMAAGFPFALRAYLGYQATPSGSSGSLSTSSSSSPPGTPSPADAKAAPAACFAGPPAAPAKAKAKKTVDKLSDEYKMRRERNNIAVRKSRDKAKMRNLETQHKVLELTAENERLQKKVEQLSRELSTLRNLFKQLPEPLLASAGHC

Test [1] has as its target T1, CD74 (invariant chain, Ii) (mouse (endogenous in mBMDMs)) (UniProt P04441).
T1 sequence: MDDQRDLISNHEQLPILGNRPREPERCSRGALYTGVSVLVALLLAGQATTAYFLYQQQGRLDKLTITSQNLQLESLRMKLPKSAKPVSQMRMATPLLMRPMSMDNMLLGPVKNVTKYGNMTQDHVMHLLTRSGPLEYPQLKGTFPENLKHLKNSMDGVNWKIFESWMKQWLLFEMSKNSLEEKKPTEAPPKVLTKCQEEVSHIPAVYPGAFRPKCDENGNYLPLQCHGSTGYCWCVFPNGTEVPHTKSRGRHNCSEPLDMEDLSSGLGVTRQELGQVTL

Test [2] addresses P65 (NF-kB pathway component p65) (mouse (endogenous in mBMDMs)) (UniProt Q04207).
In test [3] the target is CCAAT/enhancer-binding protein beta (CEBPB) (mouse (endogenous in mBMDMs)) (UniProt P28033).

Here are results for 3 molecules from PMC12866766.

No constants are given. Whether binding was seen depends on the method and setting. Binding seen in cells or lysates may run through a third protein. Some entries that bind do so weakly or less than the wild type.

Take “CCAAT/enhancer-binding protein beta (CEBPB) (from UniProt P28033 1-296)”: the binding entry in test [1] is “no binding”; in test [2], “binds”.

Regarding “P65 (NF-kB pathway component p65) (from UniProt Q04207 1-549)”, the binding result in test [3] was “binds”.

B1: CD74 (invariant chain, Ii) (receptor, UniProt P04441 1-279)
chain: T1 sequence
Regarding B1, the binding result in test [3] is “no binding”.
